Values of other authors as cited in patent US12128011B2, “Therapeutically administrable high dose non-aqueous curcuminoid solutions” (priority 2019, dated 2024).

Details: Chen, Propylene glycol based solution

COc1cc(/C=C/C(=O)CC(=O)/C=C/c2ccc(O)c(OC)c2)ccc1O [curcumin]
Solubility of curcumin: approximately 1.5 mg/ml
